{"source": "paper PMC11858971", "molecules": {"B1": {"name": "pGAD424-PIL15 (protein, UniProt Q0JNI9 1-637)", "chain": "MSDGNDFAELLWENGQAVVHGRKKHPQPAFPPFGFFGGTGGGGGGSSSRAQERQPGGIDAFAKVGGGFGALGMAPAVHDFASGFGATTQDNGDDDTVPWIHYPIIDDEDAAAPAALAAADYGSDFFSELQAAAAAAAAAAPPTDLASLPASNHNGATNNRNAPVATTTTREPSKESHGGLSVPTTRAEPQPQPQLAAAKLPRSSGSGGGEGVMNFSLFSRPAVLARATLESAQRTQGTDNKASNVTASNRVESTVVQTASGPRSAPAFADQRAAAWPPQPKEMPFASTAAAPMAPAVNLHHEMGRDRAGRTMPVHKTEARKAPEATVATSSVCSGNGAGSDELWRQQKRKCQAQAECSASQDDDLDDEPGVLRKSGTRSTKRSRTAEVHNLSERRRRDRINEKMRALQELIPNCNKIDKASMLDEAIEYLKTLQLQVQMMSMGTGLCIPPMLLPTAMQHLQIPPMAHFPHLGMGLGYGMGVFDMSNTGALQMPPMPGAHFPCPMIPGASPQGLGIPGTSTMPMFGVPGQTIPSSASSVPPFASLAGLPVRPSGVPQVSGAMANMVQDQQQGIANQQQQCLNKEAIQGANPGDSQMQIIMQGDNENFRIPSSAQTKSSQFSDGTGKGTNARERDGAET"}, "B2": {"name": "PIL15-nYFP (protein, UniProt Q0JNI9 1-637)", "chain": "B1 chain"}}, "key": {"[1]": {"biological_target": "T1, PIL15-3xFlag (rice (Oryza sativa)) (UniProt Q0JNI9)", "T1 sequence": "B1 chain", "experiment": "co-IP; 3xFlag and GFP fusions co-expressed in N. benthamiana leaves by co-infiltration (GV3101), leaves 2 days in the dark; immunoprecipitation with anti-Flag antibody, Western blot"}, "[2]": {"biological_target": "T2, PIL15-cCFP (rice (Oryza sativa)) (UniProt Q0JNI9)", "T2 sequence": "B1 chain", "experiment": "split reporter; BiFC with nYFP and cCFP fusions co-expressed in N. benthamiana leaves by Agrobacterium GV3101; fluorescence seen 48 h after injection, H2B-RFP as nuclear marker"}, "[3]": {"biological_target": "pGBT9-AOS2 (Rhizoctonia solani)", "experiment": "two-hybrid; pGAD424 fusions in AH109 mated with pGBT9 fusions in Y187; diploids on SD/-Leu-Trp, -His or -Leu-Trp-His with various concentrations of 3-AT"}, "[4]": {"biological_target": "pGBT9-WRKY36 (rice (Oryza sativa)) (UniProt Q6IEP5)", "experiment": "two-hybrid; pGAD424 fusions in AH109 mated with pGBT9 fusions in Y187; diploids on SD/-Leu-Trp, -His or -Leu-Trp-His with various concentrations of 3-AT"}, "[5]": {"biological_target": "pGBT9-WRKY53 (rice (Oryza sativa))", "experiment": "two-hybrid; pGAD424 fusions in AH109 mated with pGBT9 fusions in Y187; diploids on SD/-Leu-Trp, -His or -Leu-Trp-His with various concentrations of 3-AT"}, "[6]": {"biological_target": "WRKY36–cCFP (rice (Oryza sativa))", "experiment": "split reporter; BiFC with nYFP and cCFP fusions co-expressed in N. benthamiana leaves by Agrobacterium GV3101; fluorescence seen 48 h after injection, H2B-RFP as nuclear marker"}, "[7]": {"biological_target": "WRKY53–cCFP (rice (Oryza sativa))", "experiment": "split reporter; BiFC with nYFP and cCFP fusions co-expressed in N. benthamiana leaves by Agrobacterium GV3101; fluorescence seen 48 h after injection, H2B-RFP as nuclear marker"}}, "note": "No constants are given. Whether binding was seen depends on the method and setting. A result given as binding can be weak or reduced; the word gives no strength. For some of these results: Binding seen in cells or lysates may run through a third protein. For some of these results: Sequences can lack the tags named with a protein."}
{"molecule": "WRKY36–GFP (rice (Oryza sativa))", "values": [{"measurement": "binding", "setting": "[1]", "value": "binds"}]}
{"molecule": "AOS2-nYFP (Rhizoctonia solani)", "values": [{"measurement": "binding", "setting": "[2]", "value": "binds"}]}
{"molecule": "B1", "values": [{"measurement": "binding", "setting": "[3]", "value": "binds"}, {"measurement": "binding", "setting": "[4]", "value": "binds"}, {"measurement": "binding", "setting": "[5]", "value": "binds"}]}
{"molecule": "B2", "values": [{"measurement": "binding", "setting": "[6]", "value": "binds"}, {"measurement": "binding", "setting": "[7]", "value": "binds"}]}
